Test results published in patent publication US20090180995A1, “NOVEL ANTICOAGULANT POLYPEPTIDES AND COMPLEX” (National University of Singapore, priority 2005, published 2009).

System: hemextin A-hemextin B interaction
Assay: ITC, hemextin A-hemextin B interaction
Format: binding, Hemachatus haemachatus

B1: hemextin AB complex: synergistic 1:1 tetrameric complex of hemextin A and hemextin B, reconstituted from equimolar proteins (protein)
chain 1: LKCKNKLVPFLSKTCPEGKNLCYKMTMLKMPKIPIKRGCTDACPKSSLLVKVVCCNKDKCN
chain 2: LKCKNKVVPFLKCKNKVVPFLCYKMTLKKVPKIPIKRGCTDACPKSSLLVNVMCCKTDKCN
ITC
  ΔH, hemextin AB complex formation: -11.68 kcal/M
Slope of ΔH versus temperature, 10-45° C.
  heat capacity change ΔCp: −177 cal mol^−1 deg^−1
